Five substances from PMC4081084 can be followed below.

Chains of the proteins cited; added tags and fusions are not shown.
UniProt P78347: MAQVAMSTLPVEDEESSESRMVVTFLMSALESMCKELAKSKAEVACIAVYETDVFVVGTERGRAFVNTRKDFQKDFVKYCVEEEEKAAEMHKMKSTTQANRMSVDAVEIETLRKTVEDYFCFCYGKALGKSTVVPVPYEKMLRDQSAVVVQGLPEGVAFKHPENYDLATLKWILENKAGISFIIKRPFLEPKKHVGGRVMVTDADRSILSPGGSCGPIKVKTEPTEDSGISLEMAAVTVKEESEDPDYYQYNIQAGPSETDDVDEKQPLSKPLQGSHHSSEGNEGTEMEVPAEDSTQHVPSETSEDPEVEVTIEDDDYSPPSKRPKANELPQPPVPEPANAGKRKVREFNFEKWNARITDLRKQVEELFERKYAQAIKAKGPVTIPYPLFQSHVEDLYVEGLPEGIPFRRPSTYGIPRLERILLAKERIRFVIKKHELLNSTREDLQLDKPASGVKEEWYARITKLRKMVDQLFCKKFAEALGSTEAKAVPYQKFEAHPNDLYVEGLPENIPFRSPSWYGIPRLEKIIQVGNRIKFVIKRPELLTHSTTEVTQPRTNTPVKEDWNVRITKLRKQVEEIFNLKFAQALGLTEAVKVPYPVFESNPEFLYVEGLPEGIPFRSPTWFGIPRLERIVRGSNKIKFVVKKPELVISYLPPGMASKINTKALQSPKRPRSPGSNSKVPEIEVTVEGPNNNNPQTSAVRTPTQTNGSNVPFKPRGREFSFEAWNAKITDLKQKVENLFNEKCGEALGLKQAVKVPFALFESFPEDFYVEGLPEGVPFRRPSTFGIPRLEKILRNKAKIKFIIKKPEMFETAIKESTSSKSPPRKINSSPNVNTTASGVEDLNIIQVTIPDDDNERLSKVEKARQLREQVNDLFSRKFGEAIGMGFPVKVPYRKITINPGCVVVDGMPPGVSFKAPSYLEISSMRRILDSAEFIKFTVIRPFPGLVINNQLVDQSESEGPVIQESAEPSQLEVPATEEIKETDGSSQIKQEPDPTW
UniProt P11388: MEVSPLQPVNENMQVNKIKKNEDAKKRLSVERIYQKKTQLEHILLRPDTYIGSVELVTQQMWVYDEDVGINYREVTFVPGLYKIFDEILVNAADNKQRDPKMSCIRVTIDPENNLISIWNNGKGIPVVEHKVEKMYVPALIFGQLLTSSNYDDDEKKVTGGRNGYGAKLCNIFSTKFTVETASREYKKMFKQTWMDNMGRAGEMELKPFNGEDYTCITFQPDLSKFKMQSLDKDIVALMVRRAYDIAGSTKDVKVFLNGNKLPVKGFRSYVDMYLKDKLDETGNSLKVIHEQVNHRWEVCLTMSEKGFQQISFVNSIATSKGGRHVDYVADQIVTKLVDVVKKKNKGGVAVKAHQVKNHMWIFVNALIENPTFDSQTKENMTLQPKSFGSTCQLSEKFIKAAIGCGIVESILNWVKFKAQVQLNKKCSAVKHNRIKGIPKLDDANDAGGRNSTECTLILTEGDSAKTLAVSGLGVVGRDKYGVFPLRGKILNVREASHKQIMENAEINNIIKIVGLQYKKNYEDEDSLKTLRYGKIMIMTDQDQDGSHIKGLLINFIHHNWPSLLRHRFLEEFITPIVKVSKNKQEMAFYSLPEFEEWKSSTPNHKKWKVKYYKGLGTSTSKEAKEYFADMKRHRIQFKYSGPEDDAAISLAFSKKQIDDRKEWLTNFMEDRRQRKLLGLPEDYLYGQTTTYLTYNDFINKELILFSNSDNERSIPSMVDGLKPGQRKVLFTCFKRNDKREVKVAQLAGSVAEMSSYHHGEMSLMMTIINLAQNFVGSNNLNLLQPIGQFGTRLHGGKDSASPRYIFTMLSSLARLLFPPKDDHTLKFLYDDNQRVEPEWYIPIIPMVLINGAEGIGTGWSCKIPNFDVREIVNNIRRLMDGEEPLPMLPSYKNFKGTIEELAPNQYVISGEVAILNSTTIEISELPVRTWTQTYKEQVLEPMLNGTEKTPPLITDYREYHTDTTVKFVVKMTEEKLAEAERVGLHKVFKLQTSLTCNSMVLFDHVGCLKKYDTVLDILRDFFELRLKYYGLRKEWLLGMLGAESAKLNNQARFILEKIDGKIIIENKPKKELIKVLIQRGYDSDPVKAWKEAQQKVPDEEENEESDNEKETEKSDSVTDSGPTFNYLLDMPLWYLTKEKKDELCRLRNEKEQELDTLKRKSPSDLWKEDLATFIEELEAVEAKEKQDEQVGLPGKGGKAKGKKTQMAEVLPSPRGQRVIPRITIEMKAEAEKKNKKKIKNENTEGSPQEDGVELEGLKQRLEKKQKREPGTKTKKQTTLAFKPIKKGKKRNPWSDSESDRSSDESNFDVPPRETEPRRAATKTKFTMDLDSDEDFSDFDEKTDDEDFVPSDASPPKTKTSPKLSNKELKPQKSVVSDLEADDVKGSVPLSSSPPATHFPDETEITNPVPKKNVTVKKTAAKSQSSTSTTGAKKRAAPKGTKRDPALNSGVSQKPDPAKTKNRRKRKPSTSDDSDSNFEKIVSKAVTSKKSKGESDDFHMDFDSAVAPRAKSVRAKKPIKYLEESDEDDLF
UniProt Q02880: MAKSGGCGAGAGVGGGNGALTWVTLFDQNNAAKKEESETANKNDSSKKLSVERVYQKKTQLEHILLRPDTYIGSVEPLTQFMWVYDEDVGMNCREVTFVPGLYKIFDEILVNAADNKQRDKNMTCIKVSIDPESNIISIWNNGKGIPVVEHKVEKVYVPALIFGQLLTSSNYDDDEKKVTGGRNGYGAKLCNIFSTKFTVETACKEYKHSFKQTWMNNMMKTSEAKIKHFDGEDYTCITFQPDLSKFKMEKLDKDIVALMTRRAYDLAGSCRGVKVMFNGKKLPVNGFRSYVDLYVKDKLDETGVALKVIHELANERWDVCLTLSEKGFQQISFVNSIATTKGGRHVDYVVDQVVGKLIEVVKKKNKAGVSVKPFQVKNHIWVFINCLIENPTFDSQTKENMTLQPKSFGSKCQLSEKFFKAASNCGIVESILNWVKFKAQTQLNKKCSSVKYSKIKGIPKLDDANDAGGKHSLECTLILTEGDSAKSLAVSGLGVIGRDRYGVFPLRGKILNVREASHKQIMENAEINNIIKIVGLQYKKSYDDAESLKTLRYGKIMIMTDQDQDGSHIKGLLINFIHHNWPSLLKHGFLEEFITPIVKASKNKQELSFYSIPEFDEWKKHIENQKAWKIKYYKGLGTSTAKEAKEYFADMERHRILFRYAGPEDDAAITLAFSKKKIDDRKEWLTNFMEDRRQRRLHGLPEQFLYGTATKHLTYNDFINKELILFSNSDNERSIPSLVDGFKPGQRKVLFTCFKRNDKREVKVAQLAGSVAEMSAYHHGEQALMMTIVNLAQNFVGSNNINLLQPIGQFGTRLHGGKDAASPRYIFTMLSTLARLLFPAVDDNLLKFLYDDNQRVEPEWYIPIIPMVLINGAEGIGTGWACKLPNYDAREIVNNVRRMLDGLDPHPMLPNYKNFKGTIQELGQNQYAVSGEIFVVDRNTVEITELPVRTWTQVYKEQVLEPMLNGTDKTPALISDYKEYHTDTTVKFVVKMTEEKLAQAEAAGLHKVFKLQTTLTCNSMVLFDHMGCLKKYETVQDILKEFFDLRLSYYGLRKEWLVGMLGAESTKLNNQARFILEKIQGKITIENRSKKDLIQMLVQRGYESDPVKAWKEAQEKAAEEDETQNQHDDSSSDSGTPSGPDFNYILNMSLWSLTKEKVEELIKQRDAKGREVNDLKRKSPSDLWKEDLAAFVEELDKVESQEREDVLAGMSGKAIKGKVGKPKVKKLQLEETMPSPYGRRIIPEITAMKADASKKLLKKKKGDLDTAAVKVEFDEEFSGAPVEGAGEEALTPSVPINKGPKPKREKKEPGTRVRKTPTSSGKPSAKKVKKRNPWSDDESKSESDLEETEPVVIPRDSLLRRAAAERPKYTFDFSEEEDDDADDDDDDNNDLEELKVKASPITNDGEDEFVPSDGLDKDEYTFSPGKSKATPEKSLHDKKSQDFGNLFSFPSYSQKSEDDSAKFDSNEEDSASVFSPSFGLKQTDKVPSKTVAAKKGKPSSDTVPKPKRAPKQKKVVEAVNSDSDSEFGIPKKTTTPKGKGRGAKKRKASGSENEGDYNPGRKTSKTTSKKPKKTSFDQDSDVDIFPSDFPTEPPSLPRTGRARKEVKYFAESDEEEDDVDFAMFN
UniProt Q92804: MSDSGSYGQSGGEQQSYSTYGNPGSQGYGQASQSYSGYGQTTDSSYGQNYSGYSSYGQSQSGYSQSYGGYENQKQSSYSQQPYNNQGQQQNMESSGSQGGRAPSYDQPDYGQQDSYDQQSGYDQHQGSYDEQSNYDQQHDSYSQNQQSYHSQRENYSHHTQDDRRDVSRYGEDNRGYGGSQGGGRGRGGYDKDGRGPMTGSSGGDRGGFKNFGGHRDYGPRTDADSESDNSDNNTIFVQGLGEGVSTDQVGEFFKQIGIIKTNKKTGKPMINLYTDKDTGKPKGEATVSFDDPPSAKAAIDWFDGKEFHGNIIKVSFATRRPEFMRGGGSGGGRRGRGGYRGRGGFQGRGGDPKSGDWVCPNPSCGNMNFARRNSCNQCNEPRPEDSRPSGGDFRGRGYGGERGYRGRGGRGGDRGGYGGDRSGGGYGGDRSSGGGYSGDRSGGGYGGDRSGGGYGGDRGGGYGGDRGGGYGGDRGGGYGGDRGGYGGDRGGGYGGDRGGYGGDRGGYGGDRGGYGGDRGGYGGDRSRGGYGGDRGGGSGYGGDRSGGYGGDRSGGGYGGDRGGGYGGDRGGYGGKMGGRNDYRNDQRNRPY
UniProt P51532: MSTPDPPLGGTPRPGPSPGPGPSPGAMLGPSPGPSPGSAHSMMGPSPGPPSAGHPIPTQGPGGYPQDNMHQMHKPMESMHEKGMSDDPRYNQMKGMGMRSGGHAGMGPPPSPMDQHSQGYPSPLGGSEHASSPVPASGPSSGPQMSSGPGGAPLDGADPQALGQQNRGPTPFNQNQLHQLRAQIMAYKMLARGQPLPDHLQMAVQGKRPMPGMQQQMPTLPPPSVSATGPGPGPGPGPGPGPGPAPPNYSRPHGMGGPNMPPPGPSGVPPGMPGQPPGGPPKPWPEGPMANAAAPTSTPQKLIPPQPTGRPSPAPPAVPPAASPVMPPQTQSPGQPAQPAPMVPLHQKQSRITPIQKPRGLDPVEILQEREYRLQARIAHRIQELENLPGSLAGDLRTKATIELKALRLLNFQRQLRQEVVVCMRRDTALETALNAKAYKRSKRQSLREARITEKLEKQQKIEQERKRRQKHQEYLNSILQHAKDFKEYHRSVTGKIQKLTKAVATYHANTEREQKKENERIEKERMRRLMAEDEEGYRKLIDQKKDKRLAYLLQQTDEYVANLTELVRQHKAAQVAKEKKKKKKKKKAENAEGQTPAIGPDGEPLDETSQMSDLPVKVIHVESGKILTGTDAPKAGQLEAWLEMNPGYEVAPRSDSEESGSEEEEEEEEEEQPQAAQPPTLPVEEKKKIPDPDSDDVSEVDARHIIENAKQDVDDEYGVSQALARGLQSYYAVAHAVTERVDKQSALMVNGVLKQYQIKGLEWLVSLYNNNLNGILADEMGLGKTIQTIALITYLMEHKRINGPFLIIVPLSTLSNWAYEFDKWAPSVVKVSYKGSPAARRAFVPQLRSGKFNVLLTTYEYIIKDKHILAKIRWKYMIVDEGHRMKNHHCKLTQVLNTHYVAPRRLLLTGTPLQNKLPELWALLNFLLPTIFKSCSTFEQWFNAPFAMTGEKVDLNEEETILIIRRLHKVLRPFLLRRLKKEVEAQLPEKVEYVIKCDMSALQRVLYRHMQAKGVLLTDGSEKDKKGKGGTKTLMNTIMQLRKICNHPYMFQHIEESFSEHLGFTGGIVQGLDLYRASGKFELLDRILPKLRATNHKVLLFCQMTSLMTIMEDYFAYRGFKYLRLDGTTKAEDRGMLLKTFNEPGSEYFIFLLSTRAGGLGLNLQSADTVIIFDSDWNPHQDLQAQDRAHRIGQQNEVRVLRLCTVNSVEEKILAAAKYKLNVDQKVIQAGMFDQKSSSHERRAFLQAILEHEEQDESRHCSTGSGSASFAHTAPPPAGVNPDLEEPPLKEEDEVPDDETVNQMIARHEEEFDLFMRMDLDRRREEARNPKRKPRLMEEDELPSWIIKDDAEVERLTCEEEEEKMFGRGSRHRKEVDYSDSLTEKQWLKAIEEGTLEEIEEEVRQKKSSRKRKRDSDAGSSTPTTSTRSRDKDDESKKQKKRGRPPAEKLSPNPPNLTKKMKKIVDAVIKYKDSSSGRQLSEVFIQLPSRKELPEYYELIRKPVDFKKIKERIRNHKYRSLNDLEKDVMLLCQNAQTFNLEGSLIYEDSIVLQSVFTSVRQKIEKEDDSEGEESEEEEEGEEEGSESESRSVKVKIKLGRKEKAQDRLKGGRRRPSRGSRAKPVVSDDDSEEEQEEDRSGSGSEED

No constants are given. Whether binding was seen depends on the method and setting. Binding seen in cells or lysates may run through a third protein. Some binding calls cover weakened binding; strength is not graded here.

Holding throughout (assay): co-IP; K562 nuclear extracts treated with benzonase, 125 mM KCl in HENG buffer, pre-cleared with IgG beads, antibody cross-linked to protein G magnetic beads, overnight at 4°C; washes with HENG plus 300 mM KCl; western blot; IP with TFII-I antibodies and reverse IP with antibodies against the partners
Experiment [1] has as its target TFII-I (endogenous, K562 nuclear extract) (human (endogenous in K562)) (UniProt P78347).
For experiment [2], the target named is SMARCC1 (human (endogenous in K562)) (UniProt Q92922).
Experiment [3] has as its target topoisomerase II α (human (endogenous in K562)) (UniProt P11388).
In experiment [4] the target is topoisomerase II β (human (endogenous in K562)) (UniProt Q02880).
Experiment [5] has as its target SMARCC2 (human (endogenous in K562)) (UniProt Q8TAQ2).
The target in experiment [6] is TBP-associated factor (TAF) 15 (human (endogenous in K562)) (UniProt Q92804).
For experiment [7], the target named is Brg1 (human (endogenous in K562)) (UniProt P51532).
Experiment [8] deals with T1, transcription elongation factor Elongin A (human (endogenous in K562)) (UniProt Q14241).
T1 sequence: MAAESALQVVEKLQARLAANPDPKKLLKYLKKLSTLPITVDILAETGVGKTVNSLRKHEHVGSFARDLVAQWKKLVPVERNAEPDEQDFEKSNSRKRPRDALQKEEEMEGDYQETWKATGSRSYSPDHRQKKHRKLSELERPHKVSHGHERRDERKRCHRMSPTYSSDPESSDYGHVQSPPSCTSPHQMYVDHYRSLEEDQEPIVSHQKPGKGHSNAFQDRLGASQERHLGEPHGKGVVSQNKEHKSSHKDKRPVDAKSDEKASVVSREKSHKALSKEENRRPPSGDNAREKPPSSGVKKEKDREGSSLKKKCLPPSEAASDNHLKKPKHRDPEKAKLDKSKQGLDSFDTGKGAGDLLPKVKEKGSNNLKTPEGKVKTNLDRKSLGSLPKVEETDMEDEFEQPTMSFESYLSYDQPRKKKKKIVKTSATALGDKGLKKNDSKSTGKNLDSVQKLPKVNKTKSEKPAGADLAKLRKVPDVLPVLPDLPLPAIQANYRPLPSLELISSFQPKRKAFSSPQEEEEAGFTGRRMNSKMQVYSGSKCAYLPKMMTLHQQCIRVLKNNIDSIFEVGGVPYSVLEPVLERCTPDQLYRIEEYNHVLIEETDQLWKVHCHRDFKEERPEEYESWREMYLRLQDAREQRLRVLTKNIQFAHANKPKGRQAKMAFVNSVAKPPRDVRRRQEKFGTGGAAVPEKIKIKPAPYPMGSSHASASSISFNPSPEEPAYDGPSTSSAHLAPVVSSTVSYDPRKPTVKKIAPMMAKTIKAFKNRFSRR

Regarding SMARCC2 (from UniProt Q8TAQ2 1-1214), in experiment [1], the binding result is “binds”.
For “TFII-I (endogenous, K562 nuclear extract) (from UniProt P78347 1-998)”, the binding entry in experiment [2], in experiment [3], in experiment [4], in experiment [5], in experiment [6] and in experiment [7] was “binds” throughout. Moreover, the binding result in experiment [8] is “binds”.
Turning to “topoisomerase II β (from UniProt Q02880 1-1626) (enzyme)”, the binding result in experiment [1] was “binds”.
Regarding Brg1 (from UniProt P51532 1-1647), in experiment [1], the binding entry is recorded as “binds”.
Same read-out and setting: with SMARCC1 (from UniProt Q92922 1-1105) the entry was “binds”.
